Consider 64 compounds from PubChem BioAssay AID493014 (National Center for Advancing Translational Sciences (NCATS), 2011).

The AC50 is the midpoint of the concentration-response curve, whichever way the signal moves.

The test in a line: qHTS Assay to Find Inhibitors of Chronic Active B-Cell Receptor Signaling. The note with it: ABC-DLBCL IkBa-CBG/CBR reporter, luminescence ratio (green luciferase fused to IkBa over red control in TMD8 lymphoma cells), 4 h. The procedure, abridged: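 Concentration-response series (up to 46 uM) were applied to TMD8 dual-reporter cells for 4 h at 37C with doxycycline. Green/red ratio, after filter-overlap correction, defined %Activity; red signal alone was normalised to basal cells and zero luminescence.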
For orientation: In qHTS, concentration-response curves come from the screen itself.

Setting [1] is: measured here: CBR red luminescence, cell number.
Where [2] appears, read: measured here: IkBa-CBG green luminescence.

“And” between values parts separate entries of the source, which are not always exact repeats. Identical values can stand only once. The list shows a part of the results. The main result of the screen is listed elsewhere. These columns were measured beside it and carry no call. Compounds called inactive in the main read-out are mostly missing here. Potencies come from curve fits of mixed quality, noted in brackets.

For the compound `Cc1nn(-c2ccc(F)cc2)c(Cl)c1/C=N/NC(=O)c1ccc(O)cc1`, the AC50 under setting [1] is 7.08 µM [falling, partial curve]. Regarding `COc1ccc(C2CC(c3ccccc3)=NN2C(=O)COC(=O)c2ccc(Cl)nc2)cc1` (stereo not drawn), under setting [1], the AC50 is 20.6 µM [rising, partial curve, poor fit]. Still for that read-out and setting: the figure for `Cc1cc(NC(=O)COc2cccc3cccnc23)no1` is 11.6 µM [falling, partial curve, poor fit]; for `CCc1ccc(Nc2nnc(SCC(=O)NC(=O)c3cccn3C)s2)cc1` it is 1.12 µM [falling, partial curve]; for `O=C(Nc1nccs1)c1ccc(NC(=O)C2CC=CCC2C(=O)O)cc1` (stereo not drawn) it is 25.1 µM [falling, single point].

As to `COc1c(F)c(F)c(C(=O)O)c(Nc2ccc(C)cc2C)c1F`, under setting [1], the concentration at half-maximal activity (AC50) was 5.01 µM [rising, partial curve].

For the compound `O=C(O)c1cccnc1C(=O)O`, under setting [1], the AC50 was 4.11 µM [rising, single point]. Still for that read-out and setting: the figure for `C/C(=C\C(=O)c1ccncc1)Nc1ccccc1O` is 14.1 µM [falling, partial curve]. Take `COc1ccccc1C(=O)CSc1nnc(-c2ccco2)o1`: the AC50 under setting [1] is 10 µM [falling, partial curve]. The same measure, in the same setting: the figure for `COc1ccc(OC)c(C(=O)CN2C(=O)NC(C)(c3ccccc3)C2=O)c1` (stereo not drawn) is 15.8 µM [rising, single point]. For `O=C(Nc1nc2ccc(F)cc2s1)c1cccs1`, under setting [1], the AC50 is 1.26 µM [falling, full curve]. On the same count and under the same terms, the result for `CC(=O)c1ccc(-c2nc3ccccc3n2C)o1` reads 29.1 µM [falling, single point]; that for `COc1ccc(C(C)=O)cc1COC(=O)c1ccc2c(c1)OCCO2`, 29.1 µM [rising, single point]; that for `CN(C(=O)COC(=O)/C=C/c1ccc2ccccc2n1)c1c(N)n(Cc2ccccc2)c(=O)[nH]c1=O`, 3.66 µM [falling, partial curve, poor fit].

As for `CC(NC(=O)C1CCC(CNC(=O)[C@@H]2Cc3ccccc3CN2)CC1)c1ccccc1` (stereo partly drawn), the AC50 under setting [1] was 11.2 µM [falling, partial curve]. The same measure, in the same setting: the figure for `Cc1ccc(/C=C2/Sc3ccc(C(=O)NCc4ccccn4)cc3NC2=O)cc1` is 0.631 µM [falling, full curve, poor fit]; for `COc1ccc(-c2noc(CSc3ccc(C)cc3)n2)cc1` it is 20.6 µM [rising, partial curve, poor fit].

On to `O=S(=O)(c1ccc2ncn(O)c2c1)N1CCOCC1`, for which the concentration at half-maximal activity (AC50) under setting [1] was 0.398 µM [rising, full curve, poor fit]. In the case of `CSCCC(NC(=O)c1ccc(Cl)cc1Cl)C(=O)OCC(N)=O` (stereo not drawn), the AC50 under setting [1] is 0.501 µM [rising, full curve, poor fit]. Still for that read-out and setting: the result for `N#CNC1=NCN(Cc2ccccc2)CN1` reads 0.708 µM [falling, full curve]; that for `Cc1ccc(Nc2c(F)c(F)c(F)c(F)c2C(=O)O)c(C)c1`, 20 µM [rising, partial curve, poor fit].

For the compound `O=C(CSCC(=O)N1CCN(c2ccccc2)CC1)Nc1nc(-c2ccc(Cl)s2)cs1`, the concentration at half-maximal activity (AC50) under setting [1] is 6.51 µM [falling, full curve, poor fit]. Still for that read-out and setting: the result for `COc1ccc(-n2ncc3c(N4CCC(C)CC4)ncnc32)cc1` reads 3.16 µM [rising, partial curve, poor fit]. Turning to `C(=C\c1ccccc1)/C=N/Nc1nncc(-c2ccccc2)n1`, under setting [1], the AC50 is 9.2 µM [rising, partial curve, poor fit].

As for `Cc1ccc(SCc2nc(N)nc(Nc3ccccc3C)n2)cc1C`, under setting [1], the AC50 was 2.06 µM [falling, full curve, poor fit]. Still for that read-out and setting: the result for `COc1ccc(C(=O)Nn2c(SCC(=O)NC3CCCCC3)nc3ccccc3c2=O)cc1` reads 4.61 µM [falling, partial curve]; that for `CC(=O)Nc1ccc(/C(C)=N/NC(=O)c2ccncc2)cc1`, 35.5 µM [falling, single point]. On the same count and under the same terms, the figure for `Cc1nn(C)cc1CN1CCCC(C(=O)c2ccc(-c3ccccc3)c(F)c2)C1` (stereo not drawn) is 3.55 µM [rising, single point]. Same read-out and setting: the result for `O=C(NCCCn1ccnc1)c1ccc(S(=O)(=O)Nc2ccccc2)cc1` reads 25.1 µM [rising, partial curve, poor fit]; that for `O=c1ccnc(SCn2nnc3ccccc3c2=O)[nH]1`, 16.4 µM [rising, single point]. For the compound `O=C1c2ccccc2C(=O)N1CCc1ccccn1`, the AC50 under setting [1] was 7.31 µM [falling, single point]. Still for that read-out and setting: the figure for `CS(=O)(=O)Nc1ccc(S(=O)(=O)Nc2nccs2)cc1` is 9.2 µM [rising, partial curve]; for `CCOc1ccc(-n2c(=O)c3sccc3n(CC(=O)NCC3CCCO3)c2=O)cc1` (stereo not drawn) it is 3.98 µM [falling, partial curve, poor fit]; for `COc1ccc(C(C)(C)C)cc1NC(=O)Nc1ccc2c(c1)OCO2` it is 10.3 µM [falling, partial curve, poor fit]. Consider `Cc1ccc(C2C3=C(NCCN=C3c3ccccc3)C(=O)N2c2ccccc2)cc1` (stereo not drawn), for which, under setting [1], the AC50 is 8.2 µM [falling, single point]. Same read-out and setting: the result for `CCOc1ccc(CCNC(=O)c2cccc(N3CCCC3=O)c2)cc1OCC` reads 2.59 µM [rising, partial curve, poor fit]. Still for that read-out and setting: the result for `O=C(Cn1nc(-c2ccccc2)c2ccccc2c1=O)NCCO` reads 35.5 µM [rising, single point]; that for `CCc1cc(-c2n[nH]c(=S)n2CC)cs1`, 29.1 µM [rising, partial curve, poor fit]; that for `COc1ccc(CCN(C)CCC(=O)Nc2cccc(C)c2)cc1OC`, 0.631 µM [falling, full curve, poor fit]. On the same count and under the same terms, the result for `COc1ccc(OC)c(NC(=S)Nc2ccccc2)c1` reads 8.91 µM [rising, partial curve]; that for `COc1ccccc1NS(=O)(=O)c1cccs1`, 29.1 µM [falling, single point]; that for `CCN(CC)CCCN(Cc1cc2cc3c(cc2[nH]c1=O)OCO3)C(=S)NCCCN(C)C`, 35.5 µM [falling, single point]. For `O=C(O)c1ccc(-n2nc(C(F)(F)F)c3c2-c2ccoc2CC3)cc1`, the AC50 under setting [1] was 2.06 µM [rising, partial curve, poor fit]. On the same count and under the same terms, the figure for `Cc1ccc(N=C2NC(=O)CS2)cc1C` is 10 µM [rising, partial curve].

As to `CCCCN(C(=S)NC(=O)c1cc(OC)c(OC)c(OC)c1)c1c(N)n(Cc2ccccc2)c(=O)[nH]c1=O`, the AC50 under setting [1] was 29.1 µM [rising, partial curve, poor fit].

Regarding `Cc1nn(C)c(C(=O)Nc2ccc(S(=O)(=O)NC34CC5CC(CC(C5)C3)C4)cc2)c1Br`, the AC50 is 7.31 µM [falling, partial curve] under setting [1] and 23.1 µM [rising, single point] under setting [2]. Turning to `COC(=O)Nc1sc2c(c1C(=O)NCc1ccco1)CCC2`, under setting [1], the AC50 is 1.16 µM [falling, full curve].

As to `O=C(OCc1nnc(-c2ccccc2)o1)C1=COCCO1`, under setting [1], the AC50 is 1.46 µM [rising, full curve, poor fit]. The same measure, in the same setting: the result for `Cc1cc(C)c(C)c(S(=O)(=O)N2CCN(C(=O)c3ccc4c(=O)n5c(nc4c3)CCC5)CC2)c1C` reads 4.61 µM [rising, single point]; that for `COc1ccc(NC(=O)C23CC4CC(C2)CC(n2cnc(Br)n2)(C4)C3)c(OC)c1`, 1.16 µM [falling, full curve]; that for `CS(=O)(=O)c1ccc(N2CCN(S(=O)(=O)c3cccs3)CC2)c([N+](=O)[O-])c1`, 29.1 µM [rising, single point]. Take `Fc1ccccc1OCCSc1ncnc2nc[nH]c12`: the AC50 under setting [1] is 35.5 µM [falling, single point]. For `CCOc1ccc2nc(Nc3nc4ccc(NC(C)=O)cc4s3)sc2c1`, the half-maximal activity concentration (AC50) under setting [2] was 18.4 µM [falling, single point].

Regarding `O=C(NCCO)/C(=C/c1cccc([N+](=O)[O-])c1)NC(=O)c1ccco1`, the AC50 under setting [1] is 35.5 µM [rising, single point].

Take `CCOc1ccc(CC(=O)Nc2cccc(-c3ccc4nnc(C)n4n3)c2)cc1`: under setting [1], the AC50 is 0.631 µM [rising, full curve, poor fit].

With `O=C(Nc1ccc(F)cc1)Nc1ccc2ccccc2n1`, the AC50 under setting [1] is 0.112 µM [rising, full curve, poor fit]. Consider `CCc1oc2ccccc2c1C(=O)c1cc(Br)c(O)c(Br)c1`, for which the AC50 reads like this: under setting [1], 10 µM [falling, partial curve] and 29.1 µM [falling, single point]; under setting [2], 12.6 µM [rising, partial curve, poor fit].

For `NC(=O)c1ccc(NC(=O)C#Cc2ccccc2)cc1`, the AC50 is, setting by setting: under setting [1], 15.8 µM [falling, single point]; under setting [2], 25.1 µM [falling, single point].

As for `O=C(N/N=C/c1ccc(COc2ccc(Br)cc2)o1)c1ccco1`, the AC50 reads like this: under setting [1], 1.3 µM [rising, full curve]; under setting [2], 29.1 µM [falling, partial curve, poor fit].

`COc1ccc(/C=C/C(=O)c2ccccc2O)cc1CN1CCOCC1`: the AC50 under setting [1] is 6.51 µM [falling, single point]. Consider `O=S(=O)(CC(CN1CCCCC1)N1CCCCC1)c1ccc2ccccc2c1` (stereo not drawn), for which the AC50 under setting [1] is 2.82 µM [falling, full curve]. The same measure, in the same setting: the figure for `CS(=O)(=O)N(CC(N)=O)c1ccc2c(c1)OCO2` is 23.1 µM [rising, partial curve, poor fit]; for `COc1cc(NC(=O)COC(=O)CNC(=O)c2ccc(Cl)cc2)c(C)cc1[N+](=O)[O-]` it is 29.1 µM [rising, single point]; for `O=C(O)c1ccccc1-n1cnnn1` it is 4.47 µM [falling, single point].
